Measurements reported in PubChem BioAssay AID651768 (National Center for Advancing Translational Sciences (NCATS), 2012).
Out of some 360,000 compounds screened, about 1,700 (0.47%) were called active. Inconclusive results, whose numbers are uncertain, are shown with a selection of clear calls. Calls follow the shape of the dose curve; as a rule, active = well fitted inhibition curve with a large enough effect; inconclusive = small, poorly fitted or top-dose-only effect; inactive = no such curve, though single readings can be large or run the other way. A potency beside an inconclusive call is a rough fit, not a confirmed value.

Sequences of proteins named here, by UniProt entry; tags and fusion partners are left off.
UniProt Q14191, whole entry, looked up: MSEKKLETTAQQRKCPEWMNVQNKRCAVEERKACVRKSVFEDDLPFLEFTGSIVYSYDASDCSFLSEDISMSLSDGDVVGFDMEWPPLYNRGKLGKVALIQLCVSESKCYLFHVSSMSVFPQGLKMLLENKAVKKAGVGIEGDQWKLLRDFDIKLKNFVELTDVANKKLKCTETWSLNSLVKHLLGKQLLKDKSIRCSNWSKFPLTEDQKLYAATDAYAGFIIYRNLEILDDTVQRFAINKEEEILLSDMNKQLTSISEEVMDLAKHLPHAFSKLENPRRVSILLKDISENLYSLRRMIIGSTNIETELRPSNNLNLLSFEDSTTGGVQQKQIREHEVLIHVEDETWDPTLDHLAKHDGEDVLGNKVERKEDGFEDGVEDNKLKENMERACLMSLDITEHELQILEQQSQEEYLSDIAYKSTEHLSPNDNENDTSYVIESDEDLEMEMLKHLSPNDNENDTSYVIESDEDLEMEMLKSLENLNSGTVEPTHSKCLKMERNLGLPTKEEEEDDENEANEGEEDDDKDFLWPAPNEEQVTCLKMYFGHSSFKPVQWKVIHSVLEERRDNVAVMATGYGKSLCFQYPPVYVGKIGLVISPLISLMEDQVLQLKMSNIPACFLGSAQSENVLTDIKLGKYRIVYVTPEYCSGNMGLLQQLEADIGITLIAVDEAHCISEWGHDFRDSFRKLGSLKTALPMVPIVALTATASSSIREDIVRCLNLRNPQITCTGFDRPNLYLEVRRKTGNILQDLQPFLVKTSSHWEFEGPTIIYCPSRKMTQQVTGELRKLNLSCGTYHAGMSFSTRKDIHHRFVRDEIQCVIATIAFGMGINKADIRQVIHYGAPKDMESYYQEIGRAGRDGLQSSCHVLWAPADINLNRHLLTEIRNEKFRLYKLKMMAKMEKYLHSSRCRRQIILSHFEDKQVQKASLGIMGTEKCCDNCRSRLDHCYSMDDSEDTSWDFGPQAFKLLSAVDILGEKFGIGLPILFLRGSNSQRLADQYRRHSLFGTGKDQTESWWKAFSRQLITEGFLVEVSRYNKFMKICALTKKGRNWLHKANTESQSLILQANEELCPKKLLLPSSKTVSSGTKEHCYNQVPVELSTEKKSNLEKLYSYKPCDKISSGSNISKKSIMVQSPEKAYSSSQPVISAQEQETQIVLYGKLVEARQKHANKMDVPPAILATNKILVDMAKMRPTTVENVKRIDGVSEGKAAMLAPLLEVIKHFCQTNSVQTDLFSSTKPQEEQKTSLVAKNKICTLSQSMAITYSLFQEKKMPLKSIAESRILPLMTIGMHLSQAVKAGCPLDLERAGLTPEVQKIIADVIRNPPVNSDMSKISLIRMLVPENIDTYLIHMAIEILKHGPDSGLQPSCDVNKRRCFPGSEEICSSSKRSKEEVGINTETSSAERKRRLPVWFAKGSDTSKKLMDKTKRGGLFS

What follows are compounds tested against Bifunctional 3'-5' exonuclease/ATP-dependent helicase WRN (Homo sapiens) (UniProt Q14191) (assay: qHTS for Inhibitors of WRN Helicase). Conditions: WRN helicase unwinding, fluorescent forked duplex, kinetic; activity change, negative = inhibition: at 114 µM (top of the series) unless noted.
Excerpt: Inhibition of DNA repair is proposed as a strategy for combating cancer. Synthetic lethality is an approach that exploits preexisting DNA repair deficiencies in certain tumors to develop inhibitors of DNA repair pathways that compensate for the tumor-associated DNA repair deficiency. Because helicases play critical roles in the DNA damage response and in DNA repair, particularly in actively dividing and replicating cells, characterization of synthetic lethal relationships of DNA helicases may be of value in developing improved anticancer treatment strategies; moreover, small molecules that specifically target a given DNA helicase may be useful for understanding its role in cellular nucleic acid metabolism. The goal of this project is to identify small molecule, non-covalent chemical inhibitors of the Werner syndrome (WS) helicase (WRN), which plays an important role in cell proliferation, the replication stress response, and DNA repair. […] The WRN gene product that is defective in the chromosomal instability disorder has DNA helicase and exonuclease activities and interacts with a number of nuclear proteins to maintain genomic stability. We will employ an optimized high-throughput screening assay that utilizes a fluorescence intensity modulation scheme with a fluorophore and quencher positioned near one another within a duplex deoxyoligonucleotide that contains a single forked structure. After a high-throughput screen of the ~350,000-member Molecular Libraries Small Molecule Repository (MLSMR) collection, followed by data analysis and hit selection, a panel of confirmatory, as well as secondary and ternary, assays will be employed to identify high-confidence WRN inhibitors. Structure-activity relationships will be investigated for the top candidate inhibitor series through medchem expansion. These are the results of the primary screening campaign against the MLSMR. NIH Chemical Genomics Center [NCGC] NIH Molecular Libraries Probe Centers Network [MLPCN] MLPCN Grant: MH096530 Assay Submitter (PI): Robert Brosh, National Institute of Aging
Three muL of reagents (buffer in columns 3 and 4 as negative controls; WRN at 20 nM final concentration in columns 1 and 2 as positive controls; columns 5-48 as test reactions) will be dispensed into a 1536-well Greiner black plate via solenoid-valve based nanoliter dispensers. Compounds (23 nL each in columns 5-48) and control (23 nL each in column 2 as dose-response) will be transferred via a Kalypsys pintool equipped with a 1536-pin array. Plates will be incubated for 15 min at room temperature, and then 1 µL of substrate (100 nM forked duplex oligonucleotide and 2 mM ATP final concentrations) will be added to start reaction, and plate will be transferred into a ViewLux high-throughput CCD imager where reaction progress is measured in kinetic mode using standard red-fluorescence optics (excitation filter 525 nm, emission filter 598 nm).
% is scaled to controls: 0 for no effect and ±100 for the full control effect; potency is read from the fitted curve at half-maximal effect.
Also: nearly all actives have a fitted effect of over 55% in size.

**Q.** How did the “activity change, negative = inhibition” value turn out when `CCOc1ccc(C(=O)Nc2ccc(NC(=O)c3ccccc3)c(C)c2)cc1[N+](=O)[O-]` was run?
**A.** The value was inactive: -27.6%.

**Q.** `Cc1ccc(CNC(=O)CCCC(=O)c2ccccc2)cc1` was tested. Which “activity change, negative = inhibition” value did it give?
**A.** Its value is inactive: 9.11%.

**Q.** `O=C(Nc1ccc(-c2cscn2)cc1)C1CCCN(Cc2ccc(CO)o2)C1` (stereo unspecified) was tested. Which Potency did it give?
**A.** Its Potency is inconclusive: 89.1 µM [inhibitor, single point].

**Q.** Which “activity change, negative = inhibition” value does the source give for `Fc1ccc(C2=Nc3cccc4cccc(c34)N2)cc1` here?
**A.** The value was inactive: 12.1%.

**Q.** `COC(=O)c1ccc(COc2ccccc2/C=C(\C#N)C(=O)NC(C)C)cc1` was tested. Which “activity change, negative = inhibition” value did it give?
**A.** The value was inactive: 2.15%.

**Q.** Which Potency does the source give for `O=C1NC(=S)N/C1=C/c1cc([N+](=O)[O-])ccc1O` here?
**A.** The Potency was inconclusive: 28.2 µM [inhibitor, full curve, poor fit].

**Q.** How did the Potency turn out when `Cc1cc(CC(=O)O)c2oc(-c3ccoc3)cc(=O)c2c1` was run?
**A.** Its Potency is inconclusive: 50.1 µM [inhibitor, partial curve].

**Q.** For `Cc1cccc(OCC(=O)N/N=C/C=C/c2ccco2)c1`, which “activity change, negative = inhibition” value is on record?
**A.** The value was inactive: -25.9% [at 57.1 µM].

**Q.** For `O=[N+]([O-])c1ccc(S(=O)(=O)Nc2ccc3c(c2)OCCO3)cc1`, which “activity change, negative = inhibition” value is on record?
**A.** Its value is inactive: -1.85%.

**Q.** `Cc1ccc(C(=O)/C=C/C(=O)O)cc1` was tested. Which Potency did it give?
**A.** Its Potency is inconclusive: 2.67 µM [inhibitor, partial curve].

**Q.** With `COC(=O)CC1=NN(c2ccccc2)C(=O)/C1=C\c1ccc(OC)cc1` as the compound, how does the Potency read?
**A.** Its Potency is active: 50.1 µM.

**Q.** Which Potency does the source give for `O=C(COC(=O)c1c2c(nc3ccccc13)/C(=C/c1ccco1)CC2)NC1CCCC1` here?
**A.** Its Potency is active: 31.6 µM.

**Q.** Which activity change, negative = inhibition does the source give for `O=C(O)COc1ccc(Br)cc1/C=C1/SC(=O)N(CC(=O)N2CCCC2)C1=O` here?
**A.** Its activity change, negative = inhibition is inconclusive: -39.4% [inhibitor] [at 57.1 µM].

**Q.** `Cc1ccc(-c2nc3n(n2)Cc2ccccc2-3)cc1` was tested. Which Potency did it give?
**A.** Its Potency is inconclusive: 44.7 µM [inhibitor, full curve, poor fit].

**Q.** For `Cn1nccc1NC(=O)COCC(=O)O`, which “activity change, negative = inhibition” value is on record?
**A.** Its value is inactive: -5.39%.

**Q.** For `CC(c1ccco1)N(C(=O)c1ccccc1NS(=O)(=O)c1ccc(Cl)cc1)c1ccccn1` (stereo unspecified), which Potency is on record?
**A.** Its Potency is inconclusive: 39.8 µM [inhibitor, single point].

**Q.** Which Potency does the source give for `Cc1cc(C)c(C)c(S(=O)(=O)ON2C(=O)c3ccccc3C2=O)c1C` here?
**A.** The Potency was inconclusive: 39.8 µM [inhibitor, partial curve].

**Q.** With `CCOc1ccc(NC(=O)c2ccc(NC(=O)COC(=O)c3ccc(NC(=O)CC#N)cc3)cc2)cc1` as the compound, how does the Potency read?
**A.** The Potency was inconclusive: 35.5 µM [inhibitor, partial curve].

**Q.** `CCCCn1c(NC(=O)c2ccco2)c(S(=O)(=O)c2ccc(C)cc2)c2nc3ccccc3nc21` was tested. Which Potency did it give?
**A.** The Potency was inconclusive: 14.1 µM [inhibitor, single point].

**Q.** With `COc1ccc(/C=C2\CCn3c2nc2cc(C(=O)O)ccc2c3=O)cc1OC` as the compound, how does the Potency read?
**A.** Its Potency is inconclusive: 35.5 µM [inhibitor, full curve, poor fit].

**Q.** `CC(=NO)c1ccc2c(c1)Cc1cc([N+](=O)[O-])ccc1-2` was tested. Which “activity change, negative = inhibition” value did it give?
**A.** Its value is inactive: -26%.

**Q.** `COC(=O)c1ccc2c(c1)C(C)(C)C(/C=C/c1ccc(O)cc1)=[N+]2C` was tested. Which Potency did it give?
**A.** Its Potency is active: 50.1 µM.

**Q.** For `CCC1(C)NC(=O)N(CC(=O)Nc2sc3c(c2C(N)=O)CCC3)C1=O` (stereo unspecified), which Potency is on record?
**A.** The Potency was inconclusive: 50.1 µM [inhibitor, partial curve].

**Q.** How did the “activity change, negative = inhibition” value turn out when `CCCC(=O)N1CCCC1(C)C(=O)Nc1cc(C)ccc1C` (stereo unspecified) was run?
**A.** Its value is inactive: 4.46%.

**Q.** With `Cn1c(=O)c([N+](=O)[O-])c(NCCc2ccccc2)c2ccccc21` as the compound, how does the Potency read?
**A.** Its Potency is inconclusive: 12.6 µM [inhibitor, partial curve].

**Q.** For `Cc1ccccc1C(=O)OCC(=O)NCc1ccco1`, which Potency is on record?
**A.** The Potency was inconclusive: 35.5 µM [inhibitor, full curve].

**Q.** `Cc1ccc(-c2nn(CCC(=O)O)cc2/C=C\C(=O)c2ccc(Br)cc2)cc1` was tested. Which Potency did it give?
**A.** The Potency was inconclusive: 56.2 µM [inhibitor, partial curve].

**Q.** For `O=C(/C(N=Nc1cccc(C(F)(F)F)c1)=C(/O)c1cccs1)C(F)(F)F`, which Potency is on record?
**A.** The Potency was inconclusive: 3.55 µM [inhibitor, full curve].

**Q.** How did the Potency turn out when `O=S(=O)(Nc1cc(Sc2ncn[nH]2)c(O)c2ccccc12)c1ccccc1` was run?
**A.** The Potency was active: 35.5 µM.

**Q.** For `COc1cccc(CN2CCN(Cc3cccc(Br)c3)CC2)c1OC`, which Potency is on record?
**A.** Its Potency is inconclusive: 44.7 µM [inhibitor, partial curve].

**Q.** Which Potency does the source give for `O=C(Nc1ccccc1F)c1coc(=O)c(Br)c1` here?
**A.** The Potency was inconclusive: 56.2 µM [inhibitor, partial curve].

**Q.** `O=C(Cc1ccccc1)N/N=C/c1cccn1-c1ccc([N+](=O)[O-])cc1` was tested. Which Potency did it give?
**A.** The Potency was inconclusive: 39.8 µM [inhibitor, single point].

**Q.** `CC(C)c1ccc(N2C(=O)CC(Sc3ncn[nH]3)C2=O)cc1` (stereo unspecified) was tested. Which “activity change, negative = inhibition” value did it give?
**A.** Its value is inactive: 5.69% [at 57.1 µM].

**Q.** How did the Potency turn out when `O=C(O)C1Nc2c(C(=O)N3CCOCC3)cccc2C2C=CCC12` (stereo unspecified) was run?
**A.** The Potency was active: 56.2 µM.

**Q.** With `N#C/C(=C\c1ccc(O)c(O)c1)C(=O)NCc1ccccc1` as the compound, how does the Potency read?
**A.** Its Potency is inconclusive: 50.1 µM [inhibitor, partial curve].

**Q.** How did the Potency turn out when `Cc1ccc(C)c(OCC(=O)Nc2cc(NC(=O)COc3cc(C)ccc3C)cc(C(=O)O)c2)c1` was run?
**A.** The Potency was inconclusive: 11.2 µM [inhibitor, full curve].
